Data taken from publication PMC9443943.
These are yes or no findings as the source states them, for the method shown. Binding seen in cells or lysates may run through a third protein. Binding calls can cover weak binding; strength is not graded here.

Target: mouse Tm4sf5-Strep on sEVs from AML12 cells (AML12-sEV^Tm4sf5-Strep) (mouse)
Test: co-IP; sEVs from AML12 cells stably transfected with Tm4sf5-Strep (with or without 1 uM TSAHC pretreatment) given to differentiated primary WT BAT cells; extracts precipitated with Strep-agarose beads; blots with Strep-MAB-classic-HRP and Glut4 antibodies

binding: binds
B1: Glut4 of differentiated primary mouse brown adipose (BAT) cells (protein, UniProt P14142 1-509)
chain: MPSGFQQIGSDDGEPPRQRVTGTLVLAVFSAVLGSLQFGYNIGVINAPQKVIEQSYNATWLGRQGPGGPDSIPQGTLTTLWALSVAIFSVGGMISSFLIGIISQWLGRKRAMLANNVLAVLGGALMGLANAAASYEILILGRFLIGAYSGLTSGLVPMYVGEIAPTHLRGALGTLNQLAIVIGILVAQVLGLESMLGTATLWPLLLALTVLPALLQLILLPFCPESPRYLYIIRNLEGPARKSLKRLTGWADVSDALAELKDEKRKLERERPMSLLQLLGSRTHRQPLIIAVVLQLSQQLSGINAVFYYSTSIFESAGVGQPAYATIGAGVVNTVFTLVSVLLVERAGRRTLHLLGLAGMCGCAILMTVALLLLERVPAMSYVSIVAIFGFVAFFEIGPGPIPWFIVAELFSQGPRPAAMAVAGFSNWTCNFIVGMGFQYVADAMGPYVFLLFAVLLLGFFIFTFLKVPETRGRTFDQISAAFRRTPSLLEQEVKPSTELEYLGPDEND
